Experimental data taken from article PMC9860042.
No constants are given. Whether binding was seen depends on the method and setting. In cells and extracts the contact can be indirect. Some binding calls cover weakened binding; strength is not graded here.

Amino acid sequences for entries named in this document (tags omitted). Residues count along the entry.
UniProt P05091, residues 18-517: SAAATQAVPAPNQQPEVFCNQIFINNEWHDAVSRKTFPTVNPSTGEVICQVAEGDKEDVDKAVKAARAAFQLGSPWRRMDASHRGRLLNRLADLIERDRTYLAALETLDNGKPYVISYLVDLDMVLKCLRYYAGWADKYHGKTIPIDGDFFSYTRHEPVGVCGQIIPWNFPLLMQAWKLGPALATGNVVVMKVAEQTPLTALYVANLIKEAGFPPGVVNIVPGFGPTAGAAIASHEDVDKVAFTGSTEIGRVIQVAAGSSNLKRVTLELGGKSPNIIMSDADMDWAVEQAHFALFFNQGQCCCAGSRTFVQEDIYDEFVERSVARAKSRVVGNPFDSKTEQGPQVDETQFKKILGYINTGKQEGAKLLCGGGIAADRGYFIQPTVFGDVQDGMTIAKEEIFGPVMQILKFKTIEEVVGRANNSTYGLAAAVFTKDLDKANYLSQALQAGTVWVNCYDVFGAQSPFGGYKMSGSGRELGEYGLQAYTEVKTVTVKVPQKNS

Biological target: T1, peroxisomal proliferator-γ coactivator-1α (PGC-1α) (human (endogenous in HK-2)) (UniProt Q9UBK2)
T1 sequence: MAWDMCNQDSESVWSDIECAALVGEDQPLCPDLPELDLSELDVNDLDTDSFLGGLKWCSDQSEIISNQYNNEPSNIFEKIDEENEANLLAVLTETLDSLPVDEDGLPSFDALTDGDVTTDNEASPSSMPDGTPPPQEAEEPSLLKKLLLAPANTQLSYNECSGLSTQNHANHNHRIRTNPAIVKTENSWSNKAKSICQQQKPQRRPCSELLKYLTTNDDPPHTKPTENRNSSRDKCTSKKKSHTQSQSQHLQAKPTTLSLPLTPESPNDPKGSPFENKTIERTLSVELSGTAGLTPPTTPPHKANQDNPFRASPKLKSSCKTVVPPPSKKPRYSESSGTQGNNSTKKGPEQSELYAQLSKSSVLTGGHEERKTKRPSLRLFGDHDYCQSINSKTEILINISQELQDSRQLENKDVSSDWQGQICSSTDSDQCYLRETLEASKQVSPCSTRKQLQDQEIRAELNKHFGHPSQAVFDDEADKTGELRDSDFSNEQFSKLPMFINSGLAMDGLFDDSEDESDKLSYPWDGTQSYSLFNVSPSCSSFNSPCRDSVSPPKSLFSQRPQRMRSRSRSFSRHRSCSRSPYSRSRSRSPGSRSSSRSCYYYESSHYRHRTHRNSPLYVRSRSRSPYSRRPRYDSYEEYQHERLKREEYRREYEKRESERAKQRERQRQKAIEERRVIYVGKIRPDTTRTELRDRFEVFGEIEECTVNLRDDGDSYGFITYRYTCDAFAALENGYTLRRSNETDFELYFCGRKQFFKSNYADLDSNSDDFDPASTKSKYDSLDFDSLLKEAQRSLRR
Assay: co-IP; endogenous proteins in lysates of control and MA-treated (1 mM, 24 h) HK-2 cells; Protein A/G magnetic beads with antibody, 1 h at room temperature; western blot

For “Aldehyde dehydrogenase 2 (ALDH2), endogenous (from UniProt P05091 18-517) (enzyme)”, the binding was “binds”.
